Reference: PMC10558514
No constants are given. Whether binding was seen depends on the method and setting. Binding seen in cells or lysates may run through a third protein. Some entries that bind do so weakly or less than the wild type. For some assays here: Sequences can lack the tags named with a protein.

Protein sequences, listed by entry. Tags and fused reporters are not part of them.
UniProt Q14203: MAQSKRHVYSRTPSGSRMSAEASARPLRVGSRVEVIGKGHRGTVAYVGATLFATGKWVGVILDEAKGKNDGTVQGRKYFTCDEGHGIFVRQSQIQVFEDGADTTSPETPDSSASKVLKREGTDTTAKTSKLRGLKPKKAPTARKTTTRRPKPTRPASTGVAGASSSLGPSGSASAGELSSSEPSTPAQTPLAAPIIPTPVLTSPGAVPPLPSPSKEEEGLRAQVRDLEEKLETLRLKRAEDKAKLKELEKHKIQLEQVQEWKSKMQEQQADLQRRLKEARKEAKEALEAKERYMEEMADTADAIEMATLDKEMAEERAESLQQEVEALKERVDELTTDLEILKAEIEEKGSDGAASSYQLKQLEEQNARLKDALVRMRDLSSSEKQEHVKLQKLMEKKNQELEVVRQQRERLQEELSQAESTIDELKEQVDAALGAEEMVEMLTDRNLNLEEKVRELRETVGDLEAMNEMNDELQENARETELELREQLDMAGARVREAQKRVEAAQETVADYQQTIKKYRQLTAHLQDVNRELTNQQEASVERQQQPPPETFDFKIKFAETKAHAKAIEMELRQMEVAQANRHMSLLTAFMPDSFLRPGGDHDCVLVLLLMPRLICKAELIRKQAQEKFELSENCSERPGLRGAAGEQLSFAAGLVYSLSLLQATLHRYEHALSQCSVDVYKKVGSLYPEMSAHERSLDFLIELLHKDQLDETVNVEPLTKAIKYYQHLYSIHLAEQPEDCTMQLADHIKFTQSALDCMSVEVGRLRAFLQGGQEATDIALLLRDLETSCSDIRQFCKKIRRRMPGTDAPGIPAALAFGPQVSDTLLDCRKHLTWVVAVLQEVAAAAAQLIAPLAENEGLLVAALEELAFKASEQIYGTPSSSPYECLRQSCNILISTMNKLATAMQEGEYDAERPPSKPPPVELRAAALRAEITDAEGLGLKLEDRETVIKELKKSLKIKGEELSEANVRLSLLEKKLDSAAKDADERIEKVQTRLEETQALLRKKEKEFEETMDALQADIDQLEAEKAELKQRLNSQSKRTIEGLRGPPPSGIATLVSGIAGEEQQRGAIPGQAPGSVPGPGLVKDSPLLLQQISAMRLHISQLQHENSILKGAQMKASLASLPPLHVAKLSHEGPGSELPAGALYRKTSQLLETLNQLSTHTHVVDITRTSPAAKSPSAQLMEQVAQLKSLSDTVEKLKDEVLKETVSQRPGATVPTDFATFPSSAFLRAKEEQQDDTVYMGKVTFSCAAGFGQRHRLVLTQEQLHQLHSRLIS
UniProt P68104: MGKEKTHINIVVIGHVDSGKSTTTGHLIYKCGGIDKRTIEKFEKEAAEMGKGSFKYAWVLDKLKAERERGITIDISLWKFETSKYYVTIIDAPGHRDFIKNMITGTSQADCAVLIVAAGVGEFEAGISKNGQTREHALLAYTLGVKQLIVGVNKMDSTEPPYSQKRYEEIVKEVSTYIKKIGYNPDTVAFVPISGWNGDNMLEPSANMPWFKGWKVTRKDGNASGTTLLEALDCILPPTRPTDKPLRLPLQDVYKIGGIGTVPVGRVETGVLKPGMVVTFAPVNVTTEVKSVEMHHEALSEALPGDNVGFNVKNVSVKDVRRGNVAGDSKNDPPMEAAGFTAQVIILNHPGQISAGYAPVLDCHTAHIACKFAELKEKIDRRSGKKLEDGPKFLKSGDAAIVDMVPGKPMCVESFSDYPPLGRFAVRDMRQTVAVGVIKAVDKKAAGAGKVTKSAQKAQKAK

T1: hyperphosphorylated UPF1 (UPF1-HP) (human) (UniProt Q92900)
T1 sequence (chain, hyperphosphorylated (sites not printed)): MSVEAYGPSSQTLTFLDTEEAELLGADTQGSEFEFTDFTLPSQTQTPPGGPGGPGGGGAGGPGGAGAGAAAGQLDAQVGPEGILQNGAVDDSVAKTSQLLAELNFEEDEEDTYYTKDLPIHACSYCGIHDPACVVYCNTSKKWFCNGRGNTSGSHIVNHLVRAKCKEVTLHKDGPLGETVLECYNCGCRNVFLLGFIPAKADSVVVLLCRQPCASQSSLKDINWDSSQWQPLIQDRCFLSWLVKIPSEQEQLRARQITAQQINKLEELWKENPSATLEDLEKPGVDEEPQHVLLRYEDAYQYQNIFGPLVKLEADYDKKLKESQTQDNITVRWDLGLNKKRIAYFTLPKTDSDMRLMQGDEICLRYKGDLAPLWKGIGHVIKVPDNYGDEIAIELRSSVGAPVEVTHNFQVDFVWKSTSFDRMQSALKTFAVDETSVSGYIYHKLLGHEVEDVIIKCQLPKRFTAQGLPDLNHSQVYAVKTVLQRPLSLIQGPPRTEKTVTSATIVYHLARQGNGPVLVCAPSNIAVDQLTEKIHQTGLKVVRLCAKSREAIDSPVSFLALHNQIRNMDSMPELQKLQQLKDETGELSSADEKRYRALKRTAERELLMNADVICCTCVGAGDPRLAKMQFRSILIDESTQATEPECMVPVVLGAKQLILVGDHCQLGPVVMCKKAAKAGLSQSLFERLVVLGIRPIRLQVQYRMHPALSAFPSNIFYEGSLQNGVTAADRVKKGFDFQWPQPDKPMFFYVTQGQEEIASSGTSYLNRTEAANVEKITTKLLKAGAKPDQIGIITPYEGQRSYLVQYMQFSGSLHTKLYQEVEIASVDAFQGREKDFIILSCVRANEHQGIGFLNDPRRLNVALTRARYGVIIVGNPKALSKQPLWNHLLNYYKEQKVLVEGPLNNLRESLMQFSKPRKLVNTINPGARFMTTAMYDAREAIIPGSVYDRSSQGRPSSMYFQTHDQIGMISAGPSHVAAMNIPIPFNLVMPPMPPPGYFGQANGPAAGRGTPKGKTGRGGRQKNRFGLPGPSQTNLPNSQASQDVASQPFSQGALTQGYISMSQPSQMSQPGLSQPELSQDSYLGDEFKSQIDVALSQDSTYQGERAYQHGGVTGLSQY

T2: FLAG-CTIF (UniProt O43310)
T2 sequence: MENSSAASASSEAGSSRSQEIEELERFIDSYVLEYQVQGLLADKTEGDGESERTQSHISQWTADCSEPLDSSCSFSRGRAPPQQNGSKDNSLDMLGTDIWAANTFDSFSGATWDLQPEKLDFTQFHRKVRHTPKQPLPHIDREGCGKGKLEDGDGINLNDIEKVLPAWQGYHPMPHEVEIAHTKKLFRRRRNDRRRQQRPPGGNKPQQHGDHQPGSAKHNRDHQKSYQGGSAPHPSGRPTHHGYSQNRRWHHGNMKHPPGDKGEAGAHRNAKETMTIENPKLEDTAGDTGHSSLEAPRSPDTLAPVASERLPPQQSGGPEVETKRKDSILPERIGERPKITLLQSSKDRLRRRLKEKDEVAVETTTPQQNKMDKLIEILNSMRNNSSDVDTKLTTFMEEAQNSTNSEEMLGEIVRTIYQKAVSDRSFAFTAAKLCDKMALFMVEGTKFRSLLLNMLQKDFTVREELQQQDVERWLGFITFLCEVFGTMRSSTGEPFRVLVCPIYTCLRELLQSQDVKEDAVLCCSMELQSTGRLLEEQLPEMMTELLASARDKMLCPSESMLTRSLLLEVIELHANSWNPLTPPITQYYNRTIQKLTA

T3: YT521-B homology domain-containing family protein 2 (YTHDF2), endogenous (human (endogenous in HEK293T)) (UniProt Q9Y5A9)
T3 sequence: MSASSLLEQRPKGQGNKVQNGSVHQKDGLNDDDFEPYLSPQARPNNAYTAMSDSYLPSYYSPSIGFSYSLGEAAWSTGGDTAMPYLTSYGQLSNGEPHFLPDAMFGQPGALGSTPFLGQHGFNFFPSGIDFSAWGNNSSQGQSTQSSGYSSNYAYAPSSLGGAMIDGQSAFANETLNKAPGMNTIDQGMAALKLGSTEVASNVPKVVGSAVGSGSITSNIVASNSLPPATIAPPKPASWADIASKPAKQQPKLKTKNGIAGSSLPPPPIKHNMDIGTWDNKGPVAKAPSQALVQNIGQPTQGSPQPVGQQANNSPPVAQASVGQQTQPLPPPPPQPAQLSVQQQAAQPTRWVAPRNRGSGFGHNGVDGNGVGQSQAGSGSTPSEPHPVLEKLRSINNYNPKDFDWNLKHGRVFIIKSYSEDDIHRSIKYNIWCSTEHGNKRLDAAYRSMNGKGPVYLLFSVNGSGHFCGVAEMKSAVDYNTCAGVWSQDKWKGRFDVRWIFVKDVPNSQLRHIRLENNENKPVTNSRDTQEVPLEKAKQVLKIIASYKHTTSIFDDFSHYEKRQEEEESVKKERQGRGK


How the values were obtained:
[1] = biological target: T1, hyperphosphorylated UPF1 (UPF1-HP) (human); test: co-IP; IP of UPF1-WT, UPF1-HP or UPF1-HP-12A, with or without MG132 (Supplementary Fig. 3b)
[2] = biological target: T2, FLAG-CTIF; test: co-IP; IP of FLAG-CTIF with α-FLAG antibody from HEK293T extracts, western blot; cells undepleted or depleted of YTHDF2, with or without MG132 (Supplementary Fig. 3a, Fig. 8b)
[3] = biological target: T3, YT521-B homology domain-containing family protein 2 (YTHDF2), endogenous (human (endogenous in HEK293T)); test: co-IP; IP with an antibody against endogenous YTHDF1, YTHDF2 or YTHDF3 from HEK293T extracts in NET-2 buffer (50 mM Tris-HCl pH 7.4, 150 mM NaCl, 0.05% NP-40), 3 h at 4 °C, western blot; cells treated with MG132 12 h (Fig. 2f), or with DMSO or MG132, with or without UPF1 siRNA (Fig. 3a)

Row | Molecule | binding [1] | binding [2] | binding [3]
1 | dynactin 1 (DCTN1), endogenous (from UniProt Q14203 1-1278) | binds | – | –
2 | eukaryotic translation elongation factor 1 alpha 1 (eEF1A1), endogenous (from UniProt P68104 1-462) | binds | binds | –
3 | upstream frameshift 1 (UPF1), endogenous (protein, UniProt Q92900 1-1129) MSVEAYGPSSQTLTFLDTEEAELLGADTQGSEFEFTDFTLPSQTQTPPGGPGGPGGGGAGGPGGAGAGAAAGQLDAQVGPEGILQNGAVDDSVAKTSQLLAELNFEEDEEDTYYTKDLPIHACSYCGIHDPACVVYCNTSKKWFCNGRGNTSGSHIVNHLVRAKCKEVTLHKDGPLGETVLECYNCGCRNVFLLGFIPAKADSVVVLLCRQPCASQSSLKDINWDSSQWQPLIQDRCFLSWLVKIPSEQEQLRARQITAQQINKLEELWKENPSATLEDLEKPGVDEEPQHVLLRYEDAYQYQNIFGPLVKLEADYDKKLKESQTQDNITVRWDLGLNKKRIAYFTLPKTDSGNEDLVIIWLRDMRLMQGDEICLRYKGDLAPLWKGIGHVIKVPDNYGDEIAIELRSSVGAPVEVTHNFQVDFVWKSTSFDRMQSALKTFAVDETSVSGYIYHKLLGHEVEDVIIKCQLPKRFTAQGLPDLNHSQVYAVKTVLQRPLSLIQGPPGTGKTVTSATIVYHLARQGNGPVLVCAPSNIAVDQLTEKIHQTGLKVVRLCAKSREAIDSPVSFLALHNQIRNMDSMPELQKLQQLKDETGELSSADEKRYRALKRTAERELLMNADVICCTCVGAGDPRLAKMQFRSILIDESTQATEPECMVPVVLGAKQLILVGDHCQLGPVVMCKKAAKAGLSQSLFERLVVLGIRPIRLQVQYRMHPALSAFPSNIFYEGSLQNGVTAADRVKKGFDFQWPQPDKPMFFYVTQGQEEIASSGTSYLNRTEAANVEKITTKLLKAGAKPDQIGIITPYEGQRSYLVQYMQFSGSLHTKLYQEVEIASVDAFQGREKDFIILSCVRANEHQGIGFLNDPRRLNVALTRARYGVIIVGNPKALSKQPLWNHLLNYYKEQKVLVEGPLNNLRESLMQFSKPRKLVNTINPGARFMTTAMYDAREAIIPGSVYDRSSQGRPSSMYFQTHDQIGMISAGPSHVAAMNIPIPFNLVMPPMPPPGYFGQANGPAAGRGTPKGKTGRGGRQKNRFGLPGPSQTNLPNSQASQDVASQPFSQGALTQGYISMSQPSQMSQPGLSQPELSQDSYLGDEFKSQIDVALSQDSTYQGERAYQHGGVTGLSQY | – | binds | binds
